Results taken from patent US20140348807A1, “PROCESS FOR THE PREPARATION OF A BIOMASS COMPRISING PLANTARICIN AND USES THEREOF IN MEDICAL FIELD” (GIULIANI S.p.A., priority 2010, published 2014).
Read-outs that look alike come from different tables or passages of the source. At least one peptide structure holds a part that was inferred or is arguable (an end, a ring closure or a residue). Peptide text beside a SMILES is read from it.

Experiments:
[1] = tested on: Lactobacillus rossiae DPPMA174 (DSM 23214); assay: Growth kinetics, cell count and viability of Lactobacillus rossiae DPPMA174 cultured with plantaricin A; type: cell-based; conditions: for damaged or died L. rossiae DPPMA174 cell number: culture with 2.5 μg/ml plantaricin A, mono-culture 6.08±0.22, P<0.05
TGFβ1 = TGFβ1 gene expression by Real-Time PCR in cut NCTC 2544 keratinocyte monolayer; type: cell-based, human; conditions: after 8 hours of treatment; Plantaricin 0.1, 1 and 10 μg/ml; Connectivine 200 μg/ml
[2] = tested on: human NCTC 2544 keratinocyte cell line; type: cell-based; conditions: for increase of the percentage of migrated cells compared to negative control: 1 μg/ml
Protocol: The used cell line is a human NCTC 2544 keratinocyte cell line (Perry, V. P., Sanford, K. K., Evans, V. J., Hyatt, G. W., Earle, W. R., 1957. Establishment of clones of epithelial cells from human skin. J Natl Cancer Inst. 18 (5): 709-717) cultured in sterile flasks, incubated at 37° C. in humid atmosphere at 5% CO2 in MEM (Minimum Essential Medium) culture medium added with 10% bovine calf serum (FBS), 2 mM L-glutamine, 1% not essential amino acids, in the presence of 1% penicillin and streptomycin. Cells grow in vitro adhering to culture plate surface as a monolayer.
The experiment firstly involves the development of confluent cell monolayer. Successively the cut is carried out and the generated “gap” is observed using microscope as cells gradually moving repair the damage.
NCTC 2544 cells are plated and cultured at 37° C., with 5% CO2 for 24 hours.
After 24 hours complete growth medium is replaced with serum free medium to avoid the serum effect on cell proliferation and cells are incubated for further 24 hours at 37° C., 5% CO2.
After 24 hours the cell monolayer is mechanically damaged by mild 200 μl pipette tip brushing tracking a ˜1 mm wide horizontal line. Then the monolayer is washed and after addition of substances to be tested, the plates are incubated at 37° C., 5% CO2 for 72 hours.
the effect of the substances on cell motility is evaluated using phase contrast reverse microscope, acquiring images at various opportunely selected analysis times.
the damage remedy is determined measuring the clear area between the cut two migration fronts at 0, 4, 8, 12, 24, 48, 72 hours after the cut, using an image processing software (Leica application Suite).
After the cut on the cellular monolayer has been carried out using a 200 μl pipette tip and the cells within the gap between two cut lines completely removed, said cells are treated with synthetic and co-culture deriving Plantaricin at the following concentrations: 0.1-1-10 μg/ml. Also positive and negative controls (connectivine at 100 μg/ml) have been duplicate tested.
Images on the same cut area have been acquired at time 0 and after 4, 8, 12, 24, 48 and 72 hours, to monitor the cell migration in the cut area.

[3] = tested on: Cultured human keratinocytes; assay: Wound healing assay on cultured human keratinocyte monolayer (Example 2); type: cell-based; conditions: 1 hour incubation with stimulus (Plantaricin A 2.5 μg/ml), then 24 hours
Protocol: Cultured human keratinocytes have been incubated with Plantaricin A (2.5 μg/ml) or Plantaricin A containing biomass for 1 hour.
At the end of the incubation, the cells have been washed and culture medium restored.
The test consists of carrying out a mechanical interruption in the continuity of the cellular monolayer in order the treatment effect in favouring or not the keratinocyte ability to migrate beyond the damage border and therefore “heal the lesion” to be evaluated.
To this end the keratinocyte monolayer, treated as above described, was incubated over aditional 24 hours after stimulus application and then fixed and stained using ematoxylin/eosin staining. Images have been observed with light microscope using 5× objective.
For each image maximum cell migration limits and distance or gap there between have been detected and calculated, respectively (FIG. 9-10).

[4] = tested on: Reconstructed human epidermis SkinEthic®; assay: TEER on reconstructed human epidermis (SkinEthic); type: cell-based; conditions: 2.5 μg/ml plantaricin A, 24 hour treatment

**Q.** `CC[C@H](C)[C@H](NC(=O)[C@H](C)NC(=O)[C@@H](NC(=O)[C@H](C)NC(=O)CNC(=O)[C@H](CCSC)NC(=O)[C@H](CCC(N)=O)NC(=O)[C@H](CC(C)C)NC(=O)[C@H](CO)NC(=O)[C@H](Cc1ccc(O)cc1)NC(=O)[C@H](C)NC(=O)[C@H](CO)NC(=O)[C@H](CO)NC(=O)[C@@H](N)CCCCN)[C@@H](C)O)C(=O)N[C@@H](CCCCN)C(=O)N[C@@H](CCC(N)=O)C(=O)N[C@H](C(=O)N[C@@H](CCCCN)C(=O)N[C@@H](CCCCN)C(=O)N[C@@H](CC(C)C)C(=O)N[C@@H](Cc1ccccc1)C(=O)N[C@@H](CCCCN)C(=O)N[C@@H](CCCCN)C(=O)N[C@@H](Cc1c[nH]c2ccccc12)C(=O)NCC(=O)N[C@@H](Cc1c[nH]c2ccccc12)C(=O)O)C(C)C` [chemically synthesized plantaricin A] (H-KSSAYSLQMGATAIKQVKKLFKKWGW-OH; N-terminus and C-terminus assumed) was tested. Which “damaged or died L. rossiae DPPMA174 cell number” value [1] did it give?
**A.** about 8.80±0.14 log cells/ml

**Q.** And the TGFβ1 gene expression (TGFβ1)?
**A.** remarkably increased

**Q.** What about the “increase of the percentage of migrated cells compared to negative control” value ([2]; after 12 hours of treatment) of the same compound?
**A.** +9.86%

**Q.** What about the “increase of the percentage of migrated cells compared to negative control” value ([2]; after 24 hours of treatment) of the same compound?
**A.** 15.48%

**Q.** What about the “remedy of the tissue damage (images)” value ([2]; 10 μg/ml, all the considered time intervals) of the same compound?
**A.** comparable to positive and negative controls

**Q.** And the “cell migration through the cut area, overall statement” value ([2]; 0.1, 1 and 10 μg/ml, time 0 up to 72 hours)?
**A.** greater ability to accelerate the cell migration

**Q.** What about the “cell migration (images) vs positive and negative controls” value ([2]; 0.1 and 10 μg/ml as printed, 4 hours up to 72 hours after the cut) of the same compound?
**A.** increase of cell migration higher than both positive and negative controls

**Q.** How did the “gap between the wound margins vs control cells” value [3] turn out when `CC[C@H](C)[C@H](NC(=O)[C@H](C)NC(=O)[C@@H](NC(=O)[C@H](C)NC(=O)CNC(=O)[C@H](CCSC)NC(=O)[C@H](CCC(N)=O)NC(=O)[C@H](CC(C)C)NC(=O)[C@H](CO)NC(=O)[C@H](Cc1ccc(O)cc1)NC(=O)[C@H](C)NC(=O)[C@H](CO)NC(=O)[C@H](CO)NC(=O)[C@@H](N)CCCCN)[C@@H](C)O)C(=O)N[C@@H](CCCCN)C(=O)N[C@@H](CCC(N)=O)C(=O)N[C@H](C(=O)N[C@@H](CCCCN)C(=O)N[C@@H](CCCCN)C(=O)N[C@@H](CC(C)C)C(=O)N[C@@H](Cc1ccccc1)C(=O)N[C@@H](CCCCN)C(=O)N[C@@H](CCCCN)C(=O)N[C@@H](Cc1c[nH]c2ccccc12)C(=O)NCC(=O)N[C@@H](Cc1c[nH]c2ccccc12)C(=O)O)C(C)C` [purified plantaricin A] (H-KSSAYSLQMGATAIKQVKKLFKKWGW-OH; N-terminus and C-terminus assumed) was run?
**A.** reduce the gap

**Q.** What about the “cell number of L. rossiae DPPMA174” value ([1]; WFH medium with 2.5 μg/ml plantaricin A, mono-culture without it 9.18±0.26) of the same compound?
**A.** 8.4±0.14 log ufc/ml

**Q.** And the “damaged or died L. rossiae DPPMA174 cell number” value [1]?
**A.** about 8.80±0.14 log cells/ml

**Q.** What about the “TEER value of reconstructed epidermis (barrier function)” value (“TEER value of reconstructed epidermis” for short) [4] of the same compound?
**A.** significant increment (P<0.05) of TEER value

**Q.** And the “TEER value of reconstructed epidermis” value ([4]; listed as Plantaricin A)?
**A.** TEER remarkable increase

**Q.** And the “TEER value of reconstructed epidermis” value ([4]; listed as plantaricin A)?
**A.** stimulated the barrier functions
